± gives the standard deviation of the averaged measurements. Some of the results follow. Many values rest on one well or one pass, so single values are uncertain.

For this test, the system named is Geomyces destructans. As to the kind of experiment: growth inhibition relative to DMSO control; higher = stronger growth inhibition. The following applies: 10 µM; 15 °C; incubation time 10 days.
`CC(C)=CCc1c(O)cc2occ(-c3ccc4c(c3)OCO4)c(=O)c2c1O`: the growth inhibition came to 12.1%.
The value for `CC(=O)O[C@H]1CC[C@]2(C)[C@H]3C(=O)C=C4[C@@H]5[C@@H](C)[C@H](C)CC[C@]5(C(=O)O)CC[C@@]4(C)[C@]3(C)CC[C@H]2C1(C)C` was -3.05%.
The value for `CCn1cc(C(=O)O)c(=O)c2cc(F)c(N3CCNCC3)cc21` was -17.8%.
The figure for `NCC1OC(OC2C(N)CC(N)C(OC3OC(CO)C(O)C(N)C3O)C2O)C(N)C(O)C1O` (centres undefined) is 1.55%; for `CC(=O)O[C@H]1C[C@@H](OC(C)=O)C(C)(C)C2CC(=O)[C@]3(C)C(CC[C@@]4(C)[C@H](C(=O)O)OC(=O)C5OC543)[C@]21C` (some centres undefined) it is -6.49%.
Regarding `CCOC(=O)C1=C(C)NC(C)=C(C(=O)OC)C1c1cccc([N+](=O)[O-])c1` (centres undefined), the growth inhibition was 60.5%.
Regarding `CC1(C)S[C@@H]2[C@H](N3C(=O)[C@@H](c4ccccc4)NC3(C)C)C(=O)N2[C@H]1C(=O)O`, the growth inhibition was -0.525%.
The value for `O=C(CCCCCCCCCCCCC1CCCC1)Nc1ccc(S(=O)(=O)c2ccc(NC(=O)CCCCCCCCCCCCC3CCCC3)cc2)cc1` was -17.3%; that for `NS(=O)(=O)c1cc2c(cc1C(F)(F)F)NC(Cc1ccccc1)NS2(=O)=O` (centres undefined) was -4.57%; that for `C=C1[C@H]2CC[C@@]3(C)[C@H](c4ccoc4)OC(=O)C[C@]13O[C@H]1C[C@H](O)C(C)(C)[C@H](CC(=O)OC)[C@]12C` [3-DEOXY-3beta-HYDROXYANGOLENSIC ACID METHYL ESTER] was -11.5%.
The figure for `CC(CN1c2ccccc2Sc2ccccc21)N(C)C` (centres undefined) is -16.5%.
With `Cc1onc(-c2ccccc2)c1C(=O)N[C@@H]1C(=O)N2[C@@H]1SC(C)(C)[C@@H]2C(=O)O`, the growth inhibition is -14.8%.
The value for `CC(C)=CCc1c2c(c(O)c3c(=O)c(O)c(-c4ccccc4)oc13)C=CC(C)(C)O2` was -6.22%; that for `CCCC(CCC)C(=O)O` was -4.28%; that for `COc1ccc(-c2coc3cc(O)cc(O)c3c2=O)cc1` was -9.1%.
The value for `COc1c2c(cc3occ(-c4ccc5c(c4)OCO5)c(=O)c13)OC(C)(C)C=C2` was 7.71%; that for `CC1(C)O[C@H]2[C@H](O)C[C@](O)(C(N)=O)C[C@H]2O1` was -0.236%; that for `COC1=CC(=O)C[C@@H](C)[C@]12Oc1c(Cl)c(OC)cc(OC)c1C2=O` was -19.7%.
On to `CC[C@H](/C=C/[C@@H](C)[C@H]1CC[C@H]2[C@@H]3CCC4=CC(=O)CC[C@]4(C)[C@H]3CC[C@]12C)C(C)C`, for which the growth inhibition was -7.05%.
For the molecule `COc1cc2c(cc1OC)C(=O)OC2`, the growth inhibition was -22.3%.
The value for `OCC(O)CN1CCN(c2ccccc2)CC1` (centres undefined) was -3.75%; that for `COC1=C(OC)C(=O)C(C/C=C(\C)CC/C=C(\C)CC/C=C(\C)CC/C=C(\C)CC/C=C(\C)CC/C=C(\C)CC/C=C(\C)CC/C=C(\C)CC/C=C(\C)CCC=C(C)C)=C(C)C1=O` was -7.45%; that for `COc1ccc(CC(=O)c2ccc(O)cc2O)cc1` was 6.63%.
The value for `Cn1c(=O)c2c(ncn2C)n(C)c1=O` was 28.8%; that for `Cc1c(OCC(F)(F)F)ccnc1C[S+]([O-])c1nc2ccccc2[nH]1` (centres undefined) was -1.38%.
On to `CC(C)(C)NCC(O)c1ccc(O)c(CO)c1` (centres undefined), for which the growth inhibition was -0.163%.
The value for `C[C@@H]1CC[C@@]2(OC1)O[C@H]1C[C@H]3[C@@H]4CC[C@@H]5CC(=O)CC[C@]5(C)[C@H]4CC[C@]3(C)[C@H]1[C@@H]2C` was -2.54%; that for `COc1c2ccoc2cc2oc(C)cc(=O)c12` was -7.53%.
The figure for `NC(=O)c1ccc[n+]([C@@H]2O[C@H](COP(=O)([O-])OP(=O)(O)OC[C@H]3O[C@@H](n4cnc5c(N)ncnc54)[C@H](O)[C@@H]3O)[C@@H](O)[C@H]2O)c1` is -6.7%; for `NCC(=O)CCC(=O)O` it is -17.7%.
The figure for `COc1cc2c(cc1OC)C1C(=O)c3c(cc4c(c3O)C=CC(C)(C)O4)OC1CO2` (stereo not drawn) [beta-TOXICAROL] is -10.3%.
On to `COc1cc2c(cc1OC)[C@@H]1Cc3ccc(OC)c(OC)c3CN1CC2`, for which the growth inhibition is -5.09%.
The figure for `NCCC(=O)c1ccccc1N` is 1.23%.
The figure for `O=C(CCCN1CCC(O)(c2ccc(Cl)cc2)CC1)c1ccc(F)cc1` is -1.14%; for `O=C(O)c1cc(O)c2c(c1)C(=O)c1cc(O)cc(O)c1C2=O` it is -0.323%; for `Cc1ccc(C)c(OCCCC(C)(C)C(=O)O)c1` it is 11.8%.
Consider `COC(=O)c1c(C)c2c(c(C)c1O)OC(=O)c1c(C)c(Cl)c(O)c(Cl)c1O2`, for which the growth inhibition is 0.617%.
Take `Nc1nc(O)c2ncn([C@H]3C[C@H](O)[C@@H](CO)O3)c2n1`: the growth inhibition is -6.78%.
The figure for `CC1(C)[C@@H](O)CC[C@]2(C)[C@H]3C(=O)C=C4[C@@H]5C[C@@](C)(C(=O)O)CC[C@]5(C)CC[C@@]4(C)[C@]3(C)CC[C@@H]12` is 1.91%.
The value for `NCCS` was -10.2%; that for `COCCOC(=O)C1=C(C)NC(C)=C(C(=O)OC(C)C)C1c1cccc([N+](=O)[O-])c1` (centres undefined) was -6.61%; that for `CN1C(C(=O)Nc2ccccn2)=C(O)c2ccccc2S1(=O)=O` was -7.36%.
For `COc1c(C(=O)O)ccc2c1CCC(C)(C)O2` [DIHYDRO-beta-TUBAIC ACID], the growth inhibition was determined as 8.58%.
The figure for `Cc1c(NC(C)C)c(=O)n(-c2ccccc2)n1C` is -7.53%; for `O=c1cc(-c2ccc(O)cc2)oc2cc(O[C@@H]3O[C@H](CO)[C@@H](O)[C@H](O)[C@H]3O)cc(O)c12` it is -1.47%.
`COC(=O)C1OC(=O)C2OC23C1(C)CCC1C2(C)C(OC(C)=O)CC(OC(C)=O)C(C)(C)C2CC(=O)C13C` (centres undefined): the growth inhibition is -10.8%.
The value for `COc1ccc(-c2c(O)c3cc4c(c(CC=C(C)C)c3oc2=O)OC(C)(C)CC4)cc1` was -10.2%.
The figure for `COc1ccc([C@@H]2Sc3ccccc3N(CCN(C)C)C(=O)[C@@H]2OC(C)=O)cc1` is -21.2%; for `Cc1cn([C@H]2C[C@H](N=[N+]=[N-])[C@@H](CO)O2)c(=O)[nH]c1=O` it is -3.5%; for `CC(C[N+](C)(C)C)OC(N)=O` (centres undefined) it is -25.8%.
The figure for `CC(=O)O[C@H]1C[C@@H](O)C(C)(C)[C@@H]2C[C@@H](OC(C)=O)[C@]3(C)[C@H](CC[C@@]4(C)[C@@H](c5ccoc5)OC(=O)[C@H]5O[C@@]534)[C@@]12C` is -6.49%.
As to `CC(C)CCC[C@@H](C)[C@H]1CC[C@H]2[C@@H]3CC[C@H]4CC(=O)CC[C@]4(C)[C@H]3CC[C@]12C`, the growth inhibition is -1.89 ± 3.9%.
The value for `C=C(C)[C@H]1COc2cc3oc(=O)ccc3cc2O1` was -18.7%; that for `CC(=O)O[C@@H]1CC[C@@]2(C)C(C[C@@H](OC(C)=O)[C@@]3(C)C4=CC(=O)O[C@@H](c5ccoc5)[C@]4(C)CCC23)C1(C)C` (stereo partly drawn) [3alpha-ACETOXYDIHYDRODEOXYGEDUNIN] was -10.4%.

(Values after the supplement of paper PMC3047530.)
